Source: patent publication US20230115611A1, “TREATMENT OF PAIN AND VASOCONSTRICTION” (Aisa Pharma, Inc., priority 2020, published 2023)

Amino acid sequences for entries named in this document (tags omitted).
UniProt Q15858, whole entry: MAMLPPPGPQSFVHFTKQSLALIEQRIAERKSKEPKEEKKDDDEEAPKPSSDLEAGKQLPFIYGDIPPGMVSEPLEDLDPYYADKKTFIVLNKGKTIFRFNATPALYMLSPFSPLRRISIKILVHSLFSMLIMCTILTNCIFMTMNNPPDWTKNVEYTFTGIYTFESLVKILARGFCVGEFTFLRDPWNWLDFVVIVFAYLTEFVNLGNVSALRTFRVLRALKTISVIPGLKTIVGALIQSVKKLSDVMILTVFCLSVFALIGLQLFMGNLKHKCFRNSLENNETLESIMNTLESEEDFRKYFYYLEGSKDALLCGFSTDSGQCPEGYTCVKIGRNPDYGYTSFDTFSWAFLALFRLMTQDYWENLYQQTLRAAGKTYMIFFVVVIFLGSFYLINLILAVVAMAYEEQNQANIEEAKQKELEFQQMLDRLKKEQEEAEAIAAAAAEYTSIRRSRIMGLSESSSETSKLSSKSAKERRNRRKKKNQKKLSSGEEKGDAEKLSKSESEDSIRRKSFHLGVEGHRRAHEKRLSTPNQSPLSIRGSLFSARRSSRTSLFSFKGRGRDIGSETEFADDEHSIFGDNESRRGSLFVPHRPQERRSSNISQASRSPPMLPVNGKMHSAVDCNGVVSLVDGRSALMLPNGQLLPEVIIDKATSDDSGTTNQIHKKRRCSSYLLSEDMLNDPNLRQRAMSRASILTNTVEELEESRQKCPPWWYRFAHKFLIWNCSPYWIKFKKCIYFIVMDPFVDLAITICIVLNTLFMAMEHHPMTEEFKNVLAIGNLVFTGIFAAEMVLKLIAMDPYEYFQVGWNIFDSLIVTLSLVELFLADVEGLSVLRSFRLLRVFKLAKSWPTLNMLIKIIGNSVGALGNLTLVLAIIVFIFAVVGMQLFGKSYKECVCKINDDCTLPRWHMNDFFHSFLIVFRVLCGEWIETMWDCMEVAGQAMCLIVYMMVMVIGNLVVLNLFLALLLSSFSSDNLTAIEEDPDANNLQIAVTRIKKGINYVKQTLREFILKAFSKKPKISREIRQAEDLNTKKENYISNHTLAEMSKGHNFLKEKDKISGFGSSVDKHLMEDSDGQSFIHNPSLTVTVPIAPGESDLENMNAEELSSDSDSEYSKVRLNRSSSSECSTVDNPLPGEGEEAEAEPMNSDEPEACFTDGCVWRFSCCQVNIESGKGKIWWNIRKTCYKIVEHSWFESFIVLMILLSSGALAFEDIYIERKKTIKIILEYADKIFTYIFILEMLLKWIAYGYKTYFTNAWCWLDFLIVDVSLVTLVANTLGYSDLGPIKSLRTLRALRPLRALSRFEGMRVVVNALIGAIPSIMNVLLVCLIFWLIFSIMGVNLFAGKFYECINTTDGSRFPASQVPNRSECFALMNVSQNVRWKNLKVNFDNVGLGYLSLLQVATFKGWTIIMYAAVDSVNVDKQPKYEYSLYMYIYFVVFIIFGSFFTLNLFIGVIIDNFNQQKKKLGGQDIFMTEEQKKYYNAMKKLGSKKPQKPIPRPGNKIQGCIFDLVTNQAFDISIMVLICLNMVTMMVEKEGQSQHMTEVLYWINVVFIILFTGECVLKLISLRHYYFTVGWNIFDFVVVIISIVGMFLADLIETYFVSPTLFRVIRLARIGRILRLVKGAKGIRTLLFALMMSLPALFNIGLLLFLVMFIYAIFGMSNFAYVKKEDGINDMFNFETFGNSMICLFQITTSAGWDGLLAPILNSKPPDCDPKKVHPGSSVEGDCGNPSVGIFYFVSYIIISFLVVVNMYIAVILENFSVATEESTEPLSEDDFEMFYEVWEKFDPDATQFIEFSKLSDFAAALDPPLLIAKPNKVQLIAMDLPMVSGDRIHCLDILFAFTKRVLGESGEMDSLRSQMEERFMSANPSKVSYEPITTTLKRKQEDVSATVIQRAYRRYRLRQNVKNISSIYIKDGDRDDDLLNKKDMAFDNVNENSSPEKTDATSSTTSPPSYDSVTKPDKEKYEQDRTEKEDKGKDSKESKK

Molecular target: T1, human Nav 1.7 (Homo sapiens, UniProt Q15858)
T1 construct: expressed in transfected cells
Assay: Nav 1.7 sodium channel inhibition, automated patch clamp (QPATCH II), two pulse voltage protocol
Assay type: cell-based
Conditions: CHO cells, compound at/around Cmax concentration as in Table 4
Protocol: Chinese Hamster Ovary (CHO) cells stably expressing human Nav 1.7 were cultured according to the manufacturer's standard operating procedure (SOP) and enzymatically lifted into solution following Sophion's standard SOP.
Voltage protocol 1 (VP1): A voltage protocol designed to generate a current voltage relationship and to estimate the half inactivation potential (V1/2) was used. The first voltage protocol was used as quality control and the latter was used later in the experiment (see below).
Voltage protocol 2 (VP2): Two pulse voltage protocol. FIG. 2 depicts a two pulse voltage protocol. The line marked with an asterisk indicates the voltage that was applied to the cell. In the beginning, all channels were in the closed state (V=−120 mV). A depolarization step to V=10 mV (P1) activated all channels and produced the largest possible current. Next, cells were kept at the V1/2 value for 1 s. […] A second stimulation to V=−10 mV activated all channels that were in the closed state (50%). Compound effects were assessed at both P1 and P2. State dependent compounds will show a different degree of inhibition at the two different pulses. This protocol was repeated every 10 s to monitor compound effects on the channel.

## COC(=O)C1=C(C)NC(C)=C(C(=O)OC)C1c1ccccc1[N+](=O)[O-] [nifedipine]
Closed state (P1) of Nav 1.7
  Mean % inhibition-closed state: −2.2%
Inactivated state (P2) of Nav 1.7
  Mean % inhibition-inactivated state: 37.5%
